Assay results from paper PMC5503621.

Tests used:
[1] = tested on: GST-OVOL2; test: EMSA; settings: EMSA: Beyotime EMSA/Gel-Shift Binding Buffer, 10 uL, 2 nM labeled DNA, 5 nM protein, 25 C 30 min; native 4% PAGE in 0.5x TBE; salt and pH not stated; recombinant protein; protein details: GST
[2] = tested on: GST-OVOL2; test: competition with a labelled probe; settings: unlabeled mutant vs labeled probe2; EMSA: Beyotime EMSA/Gel-Shift Binding Buffer, 10 uL, 2 nM labeled DNA, 5 nM protein, 25 C 30 min; native 4% PAGE in 0.5x …; salt and pH not stated; recombinant protein; protein details: GST; label: unlabeled competitor

Row | Sequence | binding result [1] | binding result [2]
1 | CTCGACAAGTTGGCAGCAACAACACGGCCC (double strand) [probe1 (oligo1, Smad4 promoter site 3)] | no binding | –
2 | GTCGTCGCCGCTGCGGGGACGGAGCGGTTT (double strand) [mutated probe2] | – | no binding

For at least one entry, the source does not settle the construct or the ends of the probe. Negatives hold for the conditions tested.
